Results: the supplement of paper PMC10849652
The other results are listed elsewhere or left out.

Sequences of proteins named here, by UniProt entry; tags and fusion partners are left off. A change or cut given only in a name is not applied to a line headed by its entry.
UniProt Q9NPA8: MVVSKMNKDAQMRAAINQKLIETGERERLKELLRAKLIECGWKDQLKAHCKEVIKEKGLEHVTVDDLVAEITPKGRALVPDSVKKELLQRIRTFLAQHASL
UniProt Q9UBQ5, whole entry, looked up: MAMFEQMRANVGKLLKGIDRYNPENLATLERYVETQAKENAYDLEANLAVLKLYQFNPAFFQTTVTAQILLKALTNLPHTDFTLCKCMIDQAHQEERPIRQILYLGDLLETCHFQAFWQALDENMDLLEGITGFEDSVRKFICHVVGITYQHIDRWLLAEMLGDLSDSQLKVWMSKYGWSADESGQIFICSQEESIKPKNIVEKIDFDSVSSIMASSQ
UniProt P38919, whole entry, looked up: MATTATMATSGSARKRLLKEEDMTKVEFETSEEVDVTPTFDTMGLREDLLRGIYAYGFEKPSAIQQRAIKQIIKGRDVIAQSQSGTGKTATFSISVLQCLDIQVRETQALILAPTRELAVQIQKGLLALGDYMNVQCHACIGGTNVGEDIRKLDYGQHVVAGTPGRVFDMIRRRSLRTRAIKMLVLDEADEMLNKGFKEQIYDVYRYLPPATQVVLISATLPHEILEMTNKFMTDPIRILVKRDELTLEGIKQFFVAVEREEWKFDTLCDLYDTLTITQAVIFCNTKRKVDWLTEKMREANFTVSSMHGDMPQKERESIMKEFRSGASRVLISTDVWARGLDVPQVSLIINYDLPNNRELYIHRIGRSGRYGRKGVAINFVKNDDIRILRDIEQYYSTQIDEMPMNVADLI
UniProt Q9NRA8: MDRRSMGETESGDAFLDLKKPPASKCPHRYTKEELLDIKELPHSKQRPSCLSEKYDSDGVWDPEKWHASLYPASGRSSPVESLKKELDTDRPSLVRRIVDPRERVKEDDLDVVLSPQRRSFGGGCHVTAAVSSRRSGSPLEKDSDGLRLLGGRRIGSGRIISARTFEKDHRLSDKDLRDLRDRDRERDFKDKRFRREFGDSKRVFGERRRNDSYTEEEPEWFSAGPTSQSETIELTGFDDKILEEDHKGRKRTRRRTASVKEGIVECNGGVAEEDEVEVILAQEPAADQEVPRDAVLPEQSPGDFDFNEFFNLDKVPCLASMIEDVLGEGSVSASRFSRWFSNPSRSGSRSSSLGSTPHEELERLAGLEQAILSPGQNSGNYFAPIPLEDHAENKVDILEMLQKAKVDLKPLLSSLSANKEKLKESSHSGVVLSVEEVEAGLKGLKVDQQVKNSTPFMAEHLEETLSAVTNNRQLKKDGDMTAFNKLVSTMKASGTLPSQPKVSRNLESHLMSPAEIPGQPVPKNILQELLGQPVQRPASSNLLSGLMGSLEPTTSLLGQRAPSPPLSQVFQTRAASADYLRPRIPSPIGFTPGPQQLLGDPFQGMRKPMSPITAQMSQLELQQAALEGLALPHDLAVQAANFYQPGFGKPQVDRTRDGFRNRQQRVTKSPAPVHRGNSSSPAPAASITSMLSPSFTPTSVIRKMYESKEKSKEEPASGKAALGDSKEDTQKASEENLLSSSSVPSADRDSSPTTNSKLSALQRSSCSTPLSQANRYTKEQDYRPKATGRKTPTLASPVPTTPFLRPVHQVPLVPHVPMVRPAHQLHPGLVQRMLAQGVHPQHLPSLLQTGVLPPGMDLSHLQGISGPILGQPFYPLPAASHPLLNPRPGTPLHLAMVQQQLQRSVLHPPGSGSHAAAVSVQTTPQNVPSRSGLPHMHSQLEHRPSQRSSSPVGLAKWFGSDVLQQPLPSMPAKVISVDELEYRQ
UniProt P78344: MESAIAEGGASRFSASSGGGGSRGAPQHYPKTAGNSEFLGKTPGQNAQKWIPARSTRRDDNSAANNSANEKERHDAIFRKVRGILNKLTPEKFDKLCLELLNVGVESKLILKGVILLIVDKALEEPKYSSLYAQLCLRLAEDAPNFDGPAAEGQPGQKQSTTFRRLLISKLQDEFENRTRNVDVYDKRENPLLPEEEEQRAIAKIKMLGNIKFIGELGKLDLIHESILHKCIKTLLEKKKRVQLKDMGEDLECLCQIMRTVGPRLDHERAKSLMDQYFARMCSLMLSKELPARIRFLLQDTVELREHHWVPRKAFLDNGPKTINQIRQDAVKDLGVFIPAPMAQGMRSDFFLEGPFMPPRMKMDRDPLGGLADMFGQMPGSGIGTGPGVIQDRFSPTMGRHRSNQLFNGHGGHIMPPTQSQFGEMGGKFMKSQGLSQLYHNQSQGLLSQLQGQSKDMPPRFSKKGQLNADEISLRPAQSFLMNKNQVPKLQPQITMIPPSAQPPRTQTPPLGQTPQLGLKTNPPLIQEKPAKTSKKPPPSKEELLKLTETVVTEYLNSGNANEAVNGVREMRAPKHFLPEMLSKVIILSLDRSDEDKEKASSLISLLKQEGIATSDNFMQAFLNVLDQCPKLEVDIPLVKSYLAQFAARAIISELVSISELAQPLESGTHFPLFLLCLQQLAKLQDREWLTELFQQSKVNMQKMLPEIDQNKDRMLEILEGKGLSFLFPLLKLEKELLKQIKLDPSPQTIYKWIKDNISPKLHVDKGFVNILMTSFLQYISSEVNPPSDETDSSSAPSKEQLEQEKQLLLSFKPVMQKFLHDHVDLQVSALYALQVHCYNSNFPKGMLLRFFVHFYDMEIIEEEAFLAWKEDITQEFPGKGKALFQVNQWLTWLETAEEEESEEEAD
UniProt P60842, whole entry, looked up: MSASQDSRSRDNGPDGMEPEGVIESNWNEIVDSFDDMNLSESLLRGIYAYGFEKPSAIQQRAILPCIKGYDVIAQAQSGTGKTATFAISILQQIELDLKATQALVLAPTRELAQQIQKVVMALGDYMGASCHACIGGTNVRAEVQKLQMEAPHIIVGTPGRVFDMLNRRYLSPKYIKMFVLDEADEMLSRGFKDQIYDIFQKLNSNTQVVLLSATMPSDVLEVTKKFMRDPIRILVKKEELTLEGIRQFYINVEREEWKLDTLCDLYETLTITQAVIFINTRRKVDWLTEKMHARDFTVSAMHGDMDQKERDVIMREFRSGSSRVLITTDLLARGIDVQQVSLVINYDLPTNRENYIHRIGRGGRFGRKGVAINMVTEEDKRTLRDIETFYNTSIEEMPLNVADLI
UniProt Q8NFI3: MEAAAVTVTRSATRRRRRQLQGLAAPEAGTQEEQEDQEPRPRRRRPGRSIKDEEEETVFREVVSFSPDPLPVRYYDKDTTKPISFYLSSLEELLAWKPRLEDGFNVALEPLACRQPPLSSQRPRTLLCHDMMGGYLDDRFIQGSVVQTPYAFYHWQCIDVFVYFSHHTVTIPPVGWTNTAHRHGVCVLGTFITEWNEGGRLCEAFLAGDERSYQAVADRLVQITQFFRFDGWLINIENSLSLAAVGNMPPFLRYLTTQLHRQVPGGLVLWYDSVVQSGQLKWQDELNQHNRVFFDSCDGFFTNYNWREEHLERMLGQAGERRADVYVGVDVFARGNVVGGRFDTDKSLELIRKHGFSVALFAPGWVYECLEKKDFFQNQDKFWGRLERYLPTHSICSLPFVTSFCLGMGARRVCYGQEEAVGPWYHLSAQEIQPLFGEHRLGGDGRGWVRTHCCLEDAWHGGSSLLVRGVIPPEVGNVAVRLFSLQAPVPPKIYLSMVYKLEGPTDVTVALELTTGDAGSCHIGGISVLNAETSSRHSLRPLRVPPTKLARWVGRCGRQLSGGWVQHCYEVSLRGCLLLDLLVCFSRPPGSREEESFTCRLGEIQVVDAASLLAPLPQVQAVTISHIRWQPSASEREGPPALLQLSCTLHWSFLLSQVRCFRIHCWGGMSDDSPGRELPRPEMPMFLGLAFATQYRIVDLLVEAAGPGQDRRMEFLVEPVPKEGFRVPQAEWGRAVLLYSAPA
UniProt Q96EB1: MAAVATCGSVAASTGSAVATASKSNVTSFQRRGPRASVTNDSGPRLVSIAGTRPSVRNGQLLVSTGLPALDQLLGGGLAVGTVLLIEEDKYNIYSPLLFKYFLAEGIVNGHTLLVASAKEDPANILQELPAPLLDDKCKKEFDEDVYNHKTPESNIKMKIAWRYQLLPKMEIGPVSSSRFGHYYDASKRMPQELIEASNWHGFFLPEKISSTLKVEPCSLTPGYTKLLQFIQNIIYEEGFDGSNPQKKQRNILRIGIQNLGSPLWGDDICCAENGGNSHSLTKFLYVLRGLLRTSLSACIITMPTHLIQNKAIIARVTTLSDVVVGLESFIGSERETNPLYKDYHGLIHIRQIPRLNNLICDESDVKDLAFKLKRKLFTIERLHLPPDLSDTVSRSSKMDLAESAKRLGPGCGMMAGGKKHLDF
UniProt Q0PNE2: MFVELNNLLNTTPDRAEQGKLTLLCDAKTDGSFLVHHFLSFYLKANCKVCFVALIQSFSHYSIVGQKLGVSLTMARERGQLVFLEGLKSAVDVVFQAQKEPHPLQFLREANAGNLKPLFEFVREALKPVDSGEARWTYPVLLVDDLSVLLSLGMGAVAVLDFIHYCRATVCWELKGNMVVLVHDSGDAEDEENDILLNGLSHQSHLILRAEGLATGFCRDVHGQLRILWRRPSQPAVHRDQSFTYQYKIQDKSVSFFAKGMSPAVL
UniProt Q32P44: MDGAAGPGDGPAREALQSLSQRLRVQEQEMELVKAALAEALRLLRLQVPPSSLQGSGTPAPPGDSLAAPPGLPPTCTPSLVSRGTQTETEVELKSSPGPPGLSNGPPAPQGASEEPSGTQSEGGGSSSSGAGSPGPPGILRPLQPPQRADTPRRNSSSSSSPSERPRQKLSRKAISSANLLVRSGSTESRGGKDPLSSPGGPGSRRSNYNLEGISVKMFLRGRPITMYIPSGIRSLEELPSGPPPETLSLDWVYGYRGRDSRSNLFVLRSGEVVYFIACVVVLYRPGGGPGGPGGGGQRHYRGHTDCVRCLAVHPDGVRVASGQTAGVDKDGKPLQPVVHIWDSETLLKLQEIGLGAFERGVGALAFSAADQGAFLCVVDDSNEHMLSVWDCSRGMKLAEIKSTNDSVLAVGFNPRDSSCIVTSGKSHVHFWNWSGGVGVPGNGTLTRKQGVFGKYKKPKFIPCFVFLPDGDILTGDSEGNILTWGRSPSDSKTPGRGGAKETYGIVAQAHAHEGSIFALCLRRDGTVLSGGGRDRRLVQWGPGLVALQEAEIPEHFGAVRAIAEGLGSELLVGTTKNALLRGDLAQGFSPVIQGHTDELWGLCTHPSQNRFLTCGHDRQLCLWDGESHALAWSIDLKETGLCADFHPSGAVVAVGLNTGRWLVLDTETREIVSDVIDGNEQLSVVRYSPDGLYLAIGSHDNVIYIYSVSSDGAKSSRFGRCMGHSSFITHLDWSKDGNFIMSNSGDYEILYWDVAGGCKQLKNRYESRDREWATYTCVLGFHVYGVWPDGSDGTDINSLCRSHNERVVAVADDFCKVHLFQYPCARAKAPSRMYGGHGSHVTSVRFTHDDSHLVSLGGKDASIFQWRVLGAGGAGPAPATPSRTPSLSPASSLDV
UniProt Q8TE02: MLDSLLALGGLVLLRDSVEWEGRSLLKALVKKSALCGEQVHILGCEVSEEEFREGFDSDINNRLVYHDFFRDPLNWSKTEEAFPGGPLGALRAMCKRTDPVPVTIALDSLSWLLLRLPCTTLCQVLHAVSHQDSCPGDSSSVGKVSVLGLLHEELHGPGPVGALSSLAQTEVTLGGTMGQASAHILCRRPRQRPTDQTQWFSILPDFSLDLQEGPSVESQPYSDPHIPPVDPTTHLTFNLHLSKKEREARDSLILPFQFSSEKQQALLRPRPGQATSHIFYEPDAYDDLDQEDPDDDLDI
UniProt Q9H223: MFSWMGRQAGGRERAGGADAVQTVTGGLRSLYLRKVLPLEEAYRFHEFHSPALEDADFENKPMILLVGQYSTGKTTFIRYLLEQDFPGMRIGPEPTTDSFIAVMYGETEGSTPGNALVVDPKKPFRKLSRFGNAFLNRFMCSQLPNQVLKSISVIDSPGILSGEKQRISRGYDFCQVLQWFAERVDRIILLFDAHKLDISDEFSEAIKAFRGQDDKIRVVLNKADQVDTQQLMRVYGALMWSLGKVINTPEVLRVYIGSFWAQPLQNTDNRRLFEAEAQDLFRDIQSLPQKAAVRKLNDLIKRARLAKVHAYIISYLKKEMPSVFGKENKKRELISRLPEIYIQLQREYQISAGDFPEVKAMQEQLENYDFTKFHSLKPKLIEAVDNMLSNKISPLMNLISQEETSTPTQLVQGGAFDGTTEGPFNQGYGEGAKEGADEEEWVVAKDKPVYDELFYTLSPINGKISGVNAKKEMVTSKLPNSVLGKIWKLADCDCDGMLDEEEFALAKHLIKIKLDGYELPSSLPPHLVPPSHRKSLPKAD
UniProt Q13347, whole entry, looked up: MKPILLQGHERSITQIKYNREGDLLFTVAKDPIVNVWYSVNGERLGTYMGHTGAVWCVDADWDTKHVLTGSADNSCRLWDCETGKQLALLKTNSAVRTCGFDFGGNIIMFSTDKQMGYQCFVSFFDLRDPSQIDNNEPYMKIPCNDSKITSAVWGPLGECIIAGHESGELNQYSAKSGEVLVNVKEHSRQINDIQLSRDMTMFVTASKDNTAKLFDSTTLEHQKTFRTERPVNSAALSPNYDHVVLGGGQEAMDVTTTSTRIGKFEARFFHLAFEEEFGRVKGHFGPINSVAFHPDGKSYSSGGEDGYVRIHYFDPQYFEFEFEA

The targets below were run with O=C(O)c1ccc2c(c1)nc(Nc1cccc(Cl)c1)c1ccncc12 [silmitasertib] (assay: log2 fold change, soluble protein after heating vs DMSO (PISA); higher = thermal stabilisation; K562 cells, 10 uM, 30 min; active = over 0.2 and 3.5 SD of the protein, either way, in both replicates (recomputed)).
Procedure, shortened: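 For each measurement, 10 μM compound was applied for 30 min to K562 cells at 2×10^6 cells/mL. Aliquots were heated for 3 min across 48°C-58°C, pooled, and extracted in PBS with 0.5% NP-40 at 4°C; the supernatant after 21,000xg for 90 min was soluble protein. This was quantified by TMTpro 16plex LC-MS/MS with channel sums equalised, and thermal stability was reported relative to control samples from duplicates, on a log2 fold-change scale.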

log2 fold change, inactive:
ENY2 (UniProt Q9NPA8) -0.036
EGLN1 (UniProt Q9GZT9) 0.024
EIF3K (UniProt Q9UBQ5) 0.008
EED, A0A5F9ZI63 0.078
ELOVL5 isoform 2 (UniProt Q9NYP7) 0.098
ENO1 isoform 2 (UniProt P06733) -0.078
EIF5 (UniProt P55010) 0.006
EMC8 (UniProt O43402) 0.041
EHHADH (UniProt Q08426) 0.016
EIF2AK2 (UniProt P19525) 0.285
EIF4B (UniProt P23588) -0.013
EIF4A3 (UniProt P38919) -0.052
EMD (UniProt P50402) 0.054
EIF4ENIF1 isoform 3 (UniProt Q9NRA8) 0.042
EIF4G2 (UniProt P78344) 0.155
EIF4A1 (UniProt P60842) -0.01
EEF1D isoform 2 (UniProt P29692) 0.108
EEF1B2 (UniProt P24534) 0.027
ELP3 (UniProt Q9H9T3) 0.015
ENGASE (UniProt Q8NFI3) 0.009
ELP4 (UniProt Q96EB1) -0.046
ELP4 isoform 3 (UniProt Q96EB1) 0.005
ELP6 (UniProt Q0PNE2) 0.009
ENOPH1 (UniProt Q9UHY7) 0.006
ELOF1 (UniProt P60002) 0.129
EI24 (UniProt O14681) 0.02
EIF4A2 isoform 2 (UniProt Q14240) -0.005
EML3 isoform 2 (UniProt Q32P44) 0.049
EIF3H (UniProt O15372) 0.058
EIF5B (UniProt O60841) -0.023
ELP5 isoform 4 (UniProt Q8TE02) -0.018
EHD4 (UniProt Q9H223) 0.02
EIF3I (UniProt Q13347) 0.065
